According to article PMC7104860:
No constants are given. Whether binding was seen depends on the method and setting. Binding seen in cells or lysates may run through a third protein. Some entries that bind do so weakly or less than the wild type. For part of these data: Sequences can lack the tags named with a protein.

Experiments:
[1] = target: T1, HA-tagged Lamin C (HA-LamC) (Drosophila) (UniProt Q03427); assay: co-IP; lysates of S2 cells expressing HA-tagged wild-type or chimeric lamins, anti-HA magnetic beads, immunoblot with anti-PIG-B (endogenous PIG-B) and anti-HA
T1 sequence: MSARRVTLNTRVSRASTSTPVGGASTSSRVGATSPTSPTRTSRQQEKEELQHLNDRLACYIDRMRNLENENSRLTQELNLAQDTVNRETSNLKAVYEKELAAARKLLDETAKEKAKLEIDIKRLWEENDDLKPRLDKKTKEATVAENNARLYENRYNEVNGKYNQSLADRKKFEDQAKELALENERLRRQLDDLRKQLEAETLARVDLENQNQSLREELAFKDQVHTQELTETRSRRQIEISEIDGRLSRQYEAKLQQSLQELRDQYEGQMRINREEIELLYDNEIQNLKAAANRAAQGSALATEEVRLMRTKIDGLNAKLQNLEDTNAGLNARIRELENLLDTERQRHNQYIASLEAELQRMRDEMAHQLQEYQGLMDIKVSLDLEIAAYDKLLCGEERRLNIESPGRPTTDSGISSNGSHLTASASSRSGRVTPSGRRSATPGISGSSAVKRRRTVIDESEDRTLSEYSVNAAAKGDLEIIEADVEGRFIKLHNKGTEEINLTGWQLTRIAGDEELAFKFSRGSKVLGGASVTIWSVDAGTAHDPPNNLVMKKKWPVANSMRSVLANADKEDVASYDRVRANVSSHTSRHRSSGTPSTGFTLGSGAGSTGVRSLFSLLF

[2] = target: T2, HA-tagged Lamin Dm0 (HA-LamDm) (Drosophila) (UniProt P08928); assay: as above
T2 sequence: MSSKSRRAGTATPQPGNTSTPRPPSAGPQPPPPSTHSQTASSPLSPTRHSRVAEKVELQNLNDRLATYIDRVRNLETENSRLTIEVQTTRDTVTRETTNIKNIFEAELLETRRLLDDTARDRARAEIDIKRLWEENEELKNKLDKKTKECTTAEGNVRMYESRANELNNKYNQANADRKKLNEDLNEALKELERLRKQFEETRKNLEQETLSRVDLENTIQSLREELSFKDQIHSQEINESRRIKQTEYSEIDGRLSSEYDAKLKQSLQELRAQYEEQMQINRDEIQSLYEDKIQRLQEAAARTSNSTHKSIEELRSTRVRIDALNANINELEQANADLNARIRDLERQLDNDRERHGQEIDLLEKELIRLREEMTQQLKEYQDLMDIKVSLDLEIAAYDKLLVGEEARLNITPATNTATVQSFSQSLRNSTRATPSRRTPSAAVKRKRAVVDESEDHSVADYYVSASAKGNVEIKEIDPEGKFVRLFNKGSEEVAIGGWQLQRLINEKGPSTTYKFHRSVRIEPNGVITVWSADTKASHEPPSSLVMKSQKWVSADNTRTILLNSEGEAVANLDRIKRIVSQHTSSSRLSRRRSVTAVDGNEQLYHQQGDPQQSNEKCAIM

[3] = target: T3, Lamin Dm0 (D. melanogaster (endogenous in S2)) (UniProt P08928); assay: co-IP; endogenous proteins in S2 cell lysates (50 mM Tris-HCl pH 8.0, 150 mM NaCl, 1% Triton X-100), anti-PIG-B or anti-Lamin Dm0 (ADL67.10) antibody and Protein G Sepharose; normal mouse IgG as control
T3 sequence: T2 sequence

B1: PIG-B (endogenous) (enzyme, UniProt Q9VZM5 1-561)
chain: MKLIYVFLLILAVRLASVFVVQTYYVPDEYWQSLEVAHKLTFGYGYLTWEWVQGIRSYVYPLLIAGLYKILALLQLDSAHLLVVLPRIVQALLSAYSDYRFFVWTGKRKWALFLILVPWFWFYTGSRTLANTLEASLTTIALSYFPWYGESTAYLWPAAICCFLRPTAAVIWLPLSLYHLRRSRQNVLELILKRFVLIGLLVAGLGIAIDTYWHGQLIVTPYEFLKYNIFNNIGSFYGSHPWHWYFSVGLPTVLGINTLPFIFGVMETVKKSEKYPVSKQLLITIFLTLVVLSAVEHKEFRFVSPLLPLCLYVITDALSRWSIRASSTMLWTTALVILVGNVMPAWYLSTVHQKGPIELMPKLREIAREYRDEREHQANILFLMPCHSTPYYSHIHQNVTMRFLTCEPNLEKKEQYKDEADRFFEDPVHWINSHIPMHPLTALPTHVVLFDPLAENISVFLRNYRLLHRIEHAEVTRLEGSQALVDQWSEALGAQSPNLASLLQNRQSRTGRSILVYQRLKKGEENAFNRGPDSGQHEPDVHDHPPLEDLVLANENENLFN
[1]
  binding: no binding
[2]
  binding: binds
[3]
  binding: binds
